Data on 37 compounds can be found in PubChem BioAssay AID2685 (National Center for Advancing Translational Sciences (NCATS), 2010).

This assay is described as follows: qHTS Assay for Lipid Storage Modulators in Drosophila S3 Cells.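 For cell number change: cells counted by Cell Tracker Red CMTPX staining in the red channel.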 The following applies: BODIPY lipid droplet fluorescence, 18-24 h; for cell number change: measured here: cell count max response, cells fed with added oleic acid. The method, boiled down: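 Drosophila S3 cells loaded with oleic acid (400 uM, as added) and compounds at several concentrations; lipid droplets imaged by 488-nm laser-scanning cytometry, 500–530 nm intensity and object ratio to cell channel. Percent activity normalized to 20 uM Triacsin C.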

Setting [1] is: measured here: lipid fluorescence (Fed channel) AC50, cells fed with added oleic acid.
[2] abbreviates: measured here: cell number channel AC50, cells fed with added oleic acid.

The list shows a part of the results. Shown are side measurements of this screen, not its main read-out; they come without a call. The list favours compounds with an active or inconclusive main result. Potencies come from curve fits of mixed quality, noted in brackets. Where a SMILES comes first, the peptide text is derived from it. [ ]: non-standard residue; d: D form. pGlu = O=C1CC[CH](C(=O)O)N1

With `CC(C)(C)C1CCc2c(sc(N)c2C(N)=O)C1` (stereo unspecified), the cell number change was -28.8%. Also, under setting [1], the AC50 was 23.1 µM [falling, single point].

Take `COc1ccc(C(=O)C2CCCN(C(=O)CCc3ccccn3)C2)c(C)c1` (stereo unspecified): the AC50 under setting [1] is 4.61 µM [rising, full curve].

Consider `COc1ccc(CCNC(=O)CS(=O)Cc2nc(-c3ccc(C)cc3)oc2C)cc1OC` (stereo unspecified), for which the cell number change was determined as 4.72%. Besides, the concentration at half-maximal activity (AC50) under setting [1] is 0.92 µM [rising, full curve, poor fit].

On to `CCN(CC)S(=O)(=O)c1cccc(NC(=O)COC(=O)c2cccs2)c1`, for which the cell number change was -16.6%.

As to `Cc1snc(SCC(=O)c2ccc([N+](=O)[O-])cc2)c1C#N`, the cell number change was -30.4%. The concentration at half-maximal activity (AC50) under setting [2] was 11.6 µM [falling, single point]. Further, under setting [1], the concentration at half-maximal activity (AC50) was 16.4 µM [falling, single point].

For the compound `O=C(COc1ccc(-c2ccccc2)cc1)N/N=C/c1ccccc1Br`, the AC50 under setting [1] is 2.91 µM [rising, single point].

Take `CCOc1ccc(C(=O)NC(=S)Nc2ccccc2OC)cc1[N+](=O)[O-]`: the AC50 under setting [2] was 4.11 µM [rising, single point] and the concentration at half-maximal activity (AC50) under setting [1] was 6.51 µM [rising, single point].

With `CCOC(=O)c1ccc(N2C(=O)CC(NC3CCN(C(=O)c4ccc(F)cc4)CC3)C2=O)cc1` (stereo unspecified), under setting [2], the AC50 was 0.103 µM [rising, full curve, poor fit].

Consider `Cc1ccc(S(=O)(=O)Nc2ccc(S(=O)(=O)Nc3ncccn3)cc2)cc1`, for which the cell number change is -6.27%.

Regarding `Cc1cc(-c2n[nH]c(=S)n2/N=C/c2ccc(C)s2)n[nH]1`, the cell number change is -0.911%.

`COc1ccc(CCNC2CC(=O)N(CCc3ccc(OC)c(OC)c3)C2=O)cc1` (stereo unspecified): the cell number change stood at 69%. Further, the AC50 under setting [2] was 20.6 µM [rising, partial curve]. The AC50 under setting [1] is 1.16 µM [falling, full curve].

As for `O=C(O)[C@H](CSCc1ccccc1)NS(=O)(=O)c1ccc(F)cc1`, the cell number change is -62.1%. Under setting [2], the concentration at half-maximal activity (AC50) is 0.184 µM [falling, partial curve, poor fit]. The AC50 under setting [1] is 0.58 µM [falling, full curve].

Turning to `COc1ccccc1/C=C/C=C1\Oc2c(ccc(O)c2CN2CCN(CCO)CC2)C1=O`, the cell number change is -83.1%. The half-maximal activity concentration (AC50) under setting [2] is 7.31 µM [falling, partial curve]. In addition, the AC50 under setting [1] was 1.64 µM [rising, partial curve].

In the case of `CCOc1ccc(C2=Nn3cnnc3SC2)cc1`, the cell number change amounted to 8.18%. The half-maximal activity concentration (AC50) under setting [2] was 3.66 µM [rising, single point].

Take `N#CC1=C(N)Oc2cc(N)ccc2C1c1ccsc1` (stereo unspecified): the cell number change turned out to be 8.76%. Besides, the half-maximal activity concentration (AC50) under setting [1] was 18.4 µM [rising, single point].

Take `CC(=O)c1ccc(N2CCN(c3ncccn3)CC2)cc1`: the cell number change is -10.5%. Further, under setting [1], the AC50 is 0.0103 µM [falling, full curve, poor fit].

On to `Cc1sc2ncnc(N[C@@H](CCC(=O)O)C(=O)O)c2c1C`, for which the cell number change was -5.45%. The AC50 under setting [1] was 0.146 µM [falling, full curve, poor fit].

`O=C(COc1ccc(Cl)cc1Cl)OCC(=O)c1ccc[nH]1`: the cell number change is -23.8%. In addition, the AC50 under setting [1] is 16.4 µM [rising, partial curve].

Consider `O=C(O)c1cccc(NC2=C(N3CCOCC3)C(=O)c3ccccc3C2=O)c1`, for which the cell number change was -14.3%. Besides, under setting [1], the AC50 was 20.6 µM [falling, single point].

In the case of `Cc1cc(Cl)c2oc(C(=O)N(C)CCCN3CCOCC3)c(C)c2c1`, the cell number change was found to be 31%.

`CCN(CC)CCN1C(=O)Cn2c(C)c(C)c3cccc1c32`: the AC50 under setting [2] was 0.103 µM [rising, single point] and the concentration at half-maximal activity (AC50) under setting [1] was 6.51 µM [falling, single point].

As for `Cc1cc(C(=O)N/N=C\c2ccc(COc3ccc([N+](=O)[O-])cc3)o2)ccc1[N+](=O)[O-]`, the cell number change turned out to be 8.52%. Further, the AC50 under setting [2] was 2.91 µM [rising, partial curve]. For the same compound, the AC50 under setting [1] was 3.66 µM [rising, partial curve].

For `CCOc1ccc(N)c(SSc2cc(OCC)ccc2N)c1`, the cell number change is -21.1%.

In the case of `COc1ccc(-c2cc(-c3ccccc3)nc(-c3ccc4c(c3)NC(=O)CO4)c2)cc1`, the cell number change worked out at 23.2%. Moreover, the AC50 under setting [1] was 20.6 µM [rising, single point].

`COCc1nnc(NC(=O)c2ccc(S(=O)(=O)N(CC(C)C)CC(C)C)cc2)o1`: the cell number change is -72.9%. Moreover, the AC50 under setting [2] is 0.184 µM [falling, full curve, poor fit].

In the case of `CCn1c(SCc2ccc(F)cc2)nc2c(c1=O)SCC2`, the cell number change was 4.33%.

Consider `c1ccc(-c2nc(NC3CC3)nc(-n3ccnc3)n2)cc1`, for which the cell number change was -55.6%. Further, the AC50 under setting [2] was 13 µM [falling, partial curve]. For the same compound, the concentration at half-maximal activity (AC50) under setting [1] was 0.259 µM [rising, full curve].

With `O=C(Nc1cccc(C(=O)Nc2cccc(Br)c2)c1)c1ccccc1`, the half-maximal activity concentration (AC50) under setting [1] was 0.291 µM [falling, full curve].

Regarding `Cc1ccc(S(=O)(=O)N(C)C)cc1NC(=O)CSc1nncs1`, the AC50 under setting [2] was 0.82 µM [rising, full curve].

On to `Cc1cc(C)cc(N(CC(=O)NCc2ccccc2)C(=O)CCC(=O)Nc2ccccn2)c1`, for which the cell number change came out at 30.2%. Besides, the half-maximal activity concentration (AC50) under setting [2] is 8.2 µM [rising, partial curve, poor fit].

Consider `O=C1NC(c2cccs2)Nc2ccccc21` (stereo unspecified), for which the cell number change was -48.9%. Further, the half-maximal activity concentration (AC50) under setting [2] is 23.1 µM [falling, partial curve, poor fit].

As to `O=C(CN1C(=O)NC(Cc2c[nH]c3ccccc23)C1=O)Nc1ccc(Br)cc1F` (stereo unspecified), the cell number change was 49.9%. Moreover, the half-maximal activity concentration (AC50) under setting [2] was 29.1 µM [rising, single point].

`CNC(=S)N/N=C(\C)c1ccc(N2CCOCC2)cc1`: the cell number change was -0.739%. The AC50 under setting [1] was 0.092 µM [rising, full curve, poor fit].

Turning to `O=C(OCc1nc2ccccc2s1)[C@@H]1CCCN1S(=O)(=O)c1ccccc1F`, the cell number change is -3.15%. Further, the AC50 under setting [1] was 3.66 µM [falling, full curve].

For `CC(C)CC(NC(=O)C1CCC(=O)N1)C(=O)NC(CC(C)C)C(=O)N1CCCC1C(N)=O` (stereo unspecified) ([pGlu]LLP-NH2; configuration not given here), the cell number change was determined as 42.6%. Under setting [2], the AC50 was 32.6 µM [rising, partial curve]. The AC50 under setting [1] is 6.51 µM [rising, single point].

`CN1CCN(C(=O)c2ccc(C(C)(C)C)cc2)CC1`: the cell number change came to 23.8%. In addition, the AC50 under setting [1] was 0.146 µM [falling, full curve, poor fit].

Turning to `CC(C)CN(C(=O)C1CSC2(C)CCC(=O)N12)c1c(N)n(Cc2ccccc2)c(=O)[nH]c1=O` (stereo unspecified), the cell number change is -27.8%. Also, the half-maximal activity concentration (AC50) under setting [2] is 0.58 µM [falling, full curve, poor fit]. In addition, under setting [1], the AC50 was 13 µM [falling, partial curve].
